Test results as given in patent US10696973B2, “Inducible eukaryotic expression system” (Regeneron Pharmaceuticals, Inc., priority 2002, dated 2020).
At least one structure is not confirmed: it was looked up by name or label, or the drawing left a doubt.

By UniProt entry, the sequences of proteins in these tests, tags left out. Where a name states a change or a piece, a line headed by the entry shows the natural chain unless it says otherwise.
UniProt P03372: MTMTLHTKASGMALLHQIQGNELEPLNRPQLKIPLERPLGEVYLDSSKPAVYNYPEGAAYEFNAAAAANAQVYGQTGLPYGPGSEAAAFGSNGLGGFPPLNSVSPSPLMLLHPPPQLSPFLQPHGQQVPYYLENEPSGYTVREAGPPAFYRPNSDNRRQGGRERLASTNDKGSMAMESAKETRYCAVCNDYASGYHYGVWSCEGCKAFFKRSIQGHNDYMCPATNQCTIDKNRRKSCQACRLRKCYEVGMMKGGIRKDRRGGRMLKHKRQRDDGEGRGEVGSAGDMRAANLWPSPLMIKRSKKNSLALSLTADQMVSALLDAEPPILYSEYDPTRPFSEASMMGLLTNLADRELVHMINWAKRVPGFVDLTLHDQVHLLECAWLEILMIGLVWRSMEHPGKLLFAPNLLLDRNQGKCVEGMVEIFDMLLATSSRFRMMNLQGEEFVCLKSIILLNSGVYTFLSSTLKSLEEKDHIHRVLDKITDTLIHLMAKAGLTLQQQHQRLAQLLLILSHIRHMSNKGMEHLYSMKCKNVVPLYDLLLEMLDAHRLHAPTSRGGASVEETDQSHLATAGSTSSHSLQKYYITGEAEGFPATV
UniProt P04483: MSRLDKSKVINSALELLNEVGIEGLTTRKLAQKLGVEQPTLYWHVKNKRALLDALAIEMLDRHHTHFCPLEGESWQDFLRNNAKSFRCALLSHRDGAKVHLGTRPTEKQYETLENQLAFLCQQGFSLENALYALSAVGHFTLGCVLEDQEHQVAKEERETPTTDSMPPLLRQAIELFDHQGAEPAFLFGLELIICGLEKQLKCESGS

Molecular target: T1, TetR-ERLBDT2 regulatory fusion protein (UniProt P03372+P04483, G400V/L544A/M543A)
T1 construct: 11 amino acid linker […]; expressed in transfected cells; host or cells: CHO K1-FcR cells (CHO K1 with pTE158) stably transfected with pTE313
Assay: hFcγRI expression regulated by TetR-ERLBDT2 in CHO K1-FcR/pTE313 clones, FITC-hFc staining and flow cytometry
Type: cell-based
Conditions: clone D124; Dox at 1 μg/ml added to cells grown in the presence of OHT

Q: For `C[C@H]1c2cccc(O)c2C(=O)C2=C(O)[C@]3(O)C(=O)C(C(N)=O)=C(O)[C@@H](N(C)C)[C@@H]3[C@@H](O)[C@@H]21` [Dox, doxycycline], which “level of hFcγRI expression” value is on record?
A: The value was “high levels of hFcγRI expression”.
